These are yes or no findings as the source states them, for the method shown. In cells and extracts the contact can be indirect. Some results given as binding are weak or reduced against the parent protein; the word gives no strength.
What was measured:
[1] = target: T1, Vinculin (VCL), endogenous in adult mouse heart (mouse (endogenous in heart)) (UniProt Q64727); experiment: co-IP; adult mouse heart homogenate in RIPA buffer, 1.0 mg a reaction; 25 ug VCL or SCN5A antibody immobilised on agarose resin (Pierce direct IP kit), 4 °C overnight; Western blot with anti-SCN5A or anti-VCL
T1 sequence: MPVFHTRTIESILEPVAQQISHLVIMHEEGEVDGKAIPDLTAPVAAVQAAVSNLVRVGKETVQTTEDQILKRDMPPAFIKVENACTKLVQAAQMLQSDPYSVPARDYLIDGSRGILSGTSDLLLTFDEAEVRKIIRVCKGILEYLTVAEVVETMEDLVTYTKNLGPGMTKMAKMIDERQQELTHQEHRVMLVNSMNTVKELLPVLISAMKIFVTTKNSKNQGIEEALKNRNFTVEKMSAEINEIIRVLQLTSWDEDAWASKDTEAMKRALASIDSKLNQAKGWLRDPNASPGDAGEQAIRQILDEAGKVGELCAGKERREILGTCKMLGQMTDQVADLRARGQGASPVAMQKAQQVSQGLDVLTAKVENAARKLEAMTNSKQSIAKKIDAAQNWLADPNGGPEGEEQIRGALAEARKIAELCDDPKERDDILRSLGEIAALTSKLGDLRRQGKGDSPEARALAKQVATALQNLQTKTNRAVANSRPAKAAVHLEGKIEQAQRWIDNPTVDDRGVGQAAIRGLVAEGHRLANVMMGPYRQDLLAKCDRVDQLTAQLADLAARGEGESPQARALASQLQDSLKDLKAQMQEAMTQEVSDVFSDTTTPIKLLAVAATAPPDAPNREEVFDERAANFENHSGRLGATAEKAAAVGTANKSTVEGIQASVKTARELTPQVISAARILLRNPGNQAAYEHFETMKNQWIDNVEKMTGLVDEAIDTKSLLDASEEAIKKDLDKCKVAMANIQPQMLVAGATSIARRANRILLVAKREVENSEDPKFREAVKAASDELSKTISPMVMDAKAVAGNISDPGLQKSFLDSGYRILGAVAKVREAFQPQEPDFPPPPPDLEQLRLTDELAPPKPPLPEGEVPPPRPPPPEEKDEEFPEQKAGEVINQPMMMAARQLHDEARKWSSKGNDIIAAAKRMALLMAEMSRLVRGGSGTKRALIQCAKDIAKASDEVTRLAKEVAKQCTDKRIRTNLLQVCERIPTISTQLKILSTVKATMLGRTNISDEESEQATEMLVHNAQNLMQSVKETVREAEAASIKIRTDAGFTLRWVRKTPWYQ

[2] = target: SCN5A (cardiac sodium channel), endogenous in adult mouse heart (mouse (endogenous in heart)) (UniProt Q9JJV9); experiment: as above

| Molecule | binding [1] | binding [2] |
| --- | --- | --- |
| SCN5A (cardiac sodium channel), endogenous in adult mouse heart (from UniProt Q9JJV9 1-2019) | binds | – |
| Vinculin (VCL), endogenous in adult mouse heart (protein, UniProt Q64727 1-1066) MPVFHTRTIESILEPVAQQISHLVIMHEEGEVDGKAIPDLTAPVAAVQAAVSNLVRVGKETVQTTEDQILKRDMPPAFIKVENACTKLVQAAQMLQSDPYSVPARDYLIDGSRGILSGTSDLLLTFDEAEVRKIIRVCKGILEYLTVAEVVETMEDLVTYTKNLGPGMTKMAKMIDERQQELTHQEHRVMLVNSMNTVKELLPVLISAMKIFVTTKNSKNQGIEEALKNRNFTVEKMSAEINEIIRVLQLTSWDEDAWASKDTEAMKRALASIDSKLNQAKGWLRDPNASPGDAGEQAIRQILDEAGKVGELCAGKERREILGTCKMLGQMTDQVADLRARGQGASPVAMQKAQQVSQGLDVLTAKVENAARKLEAMTNSKQSIAKKIDAAQNWLADPNGGPEGEEQIRGALAEARKIAELCDDPKERDDILRSLGEIAALTSKLGDLRRQGKGDSPEARALAKQVATALQNLQTKTNRAVANSRPAKAAVHLEGKIEQAQRWIDNPTVDDRGVGQAAIRGLVAEGHRLANVMMGPYRQDLLAKCDRVDQLTAQLADLAARGEGESPQARALASQLQDSLKDLKAQMQEAMTQEVSDVFSDTTTPIKLLAVAATAPPDAPNREEVFDERAANFENHSGRLGATAEKAAAVGTANKSTVEGIQASVKTARELTPQVISAARILLRNPGNQAAYEHFETMKNQWIDNVEKMTGLVDEAIDTKSLLDASEEAIKKDLDKCKVAMANIQPQMLVAGATSIARRANRILLVAKREVENSEDPKFREAVKAASDELSKTISPMVMDAKAVAGNISDPGLQKSFLDSGYRILGAVAKVREAFQPQEPDFPPPPPDLEQLRLTDELAPPKPPLPEGEVPPPRPPPPEEKDEEFPEQKAGEVINQPMMMAARQLHDEARKWSSKGNDIIAAAKRMALLMAEMSRLVRGGSGTKRALIQCAKDIAKASDEVTRLAKEVAKQCTDKRIRTNLLQVCERIPTISTQLKILSTVKATMLGRTNISDEESEQATEMLVHNAQNLMQSVKETVREAEAASIKIRTDAGFTLRWVRKTPWYQ | – | binds |
